# Some of the results follow. Single values of this set are uncertain.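 Many melting curves are irregular; where none melted, Tm was taken as 64 °C.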
# Amino acid sequences for entries named in this document (tags omitted). A change or cut given only in a name is not applied to a line headed by its entry.
# UniProt Q2NKX8: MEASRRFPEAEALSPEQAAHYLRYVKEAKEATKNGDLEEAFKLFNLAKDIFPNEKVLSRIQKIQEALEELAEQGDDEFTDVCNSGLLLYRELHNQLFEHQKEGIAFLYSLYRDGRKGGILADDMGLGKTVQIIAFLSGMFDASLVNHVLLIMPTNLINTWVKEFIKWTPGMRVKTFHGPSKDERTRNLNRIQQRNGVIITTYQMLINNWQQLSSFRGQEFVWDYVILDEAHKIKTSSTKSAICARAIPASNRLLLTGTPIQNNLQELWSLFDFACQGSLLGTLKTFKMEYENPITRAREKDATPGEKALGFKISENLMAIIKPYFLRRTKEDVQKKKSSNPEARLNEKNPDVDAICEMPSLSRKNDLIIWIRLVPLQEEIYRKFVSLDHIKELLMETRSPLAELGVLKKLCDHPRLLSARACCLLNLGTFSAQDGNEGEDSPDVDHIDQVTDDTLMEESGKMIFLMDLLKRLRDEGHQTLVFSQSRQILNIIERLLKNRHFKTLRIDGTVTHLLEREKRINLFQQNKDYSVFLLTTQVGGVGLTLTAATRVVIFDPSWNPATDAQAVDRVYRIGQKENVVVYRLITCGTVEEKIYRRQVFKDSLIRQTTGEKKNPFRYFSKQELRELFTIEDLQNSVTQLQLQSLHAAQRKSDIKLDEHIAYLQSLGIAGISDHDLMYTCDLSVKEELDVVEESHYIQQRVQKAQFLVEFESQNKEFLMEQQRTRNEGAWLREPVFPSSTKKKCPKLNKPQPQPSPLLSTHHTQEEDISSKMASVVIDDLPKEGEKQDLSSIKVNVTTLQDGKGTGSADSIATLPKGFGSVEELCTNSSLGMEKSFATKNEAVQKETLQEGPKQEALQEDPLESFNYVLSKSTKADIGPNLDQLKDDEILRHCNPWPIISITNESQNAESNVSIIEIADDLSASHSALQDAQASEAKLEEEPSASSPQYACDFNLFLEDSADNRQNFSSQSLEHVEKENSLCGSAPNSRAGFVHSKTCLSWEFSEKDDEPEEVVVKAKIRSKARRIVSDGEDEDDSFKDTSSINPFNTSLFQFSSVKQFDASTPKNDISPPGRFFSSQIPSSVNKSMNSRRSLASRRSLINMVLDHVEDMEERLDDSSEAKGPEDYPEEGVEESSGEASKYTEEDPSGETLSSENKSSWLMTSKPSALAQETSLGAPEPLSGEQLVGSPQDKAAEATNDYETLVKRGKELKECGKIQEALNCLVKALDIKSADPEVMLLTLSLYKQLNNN
# UniProt Q15185: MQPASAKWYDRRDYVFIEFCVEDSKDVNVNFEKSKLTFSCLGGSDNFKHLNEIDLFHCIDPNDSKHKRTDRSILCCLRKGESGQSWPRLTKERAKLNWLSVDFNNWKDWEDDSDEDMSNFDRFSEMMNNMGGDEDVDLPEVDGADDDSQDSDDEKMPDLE
# UniProt Q4VCS5: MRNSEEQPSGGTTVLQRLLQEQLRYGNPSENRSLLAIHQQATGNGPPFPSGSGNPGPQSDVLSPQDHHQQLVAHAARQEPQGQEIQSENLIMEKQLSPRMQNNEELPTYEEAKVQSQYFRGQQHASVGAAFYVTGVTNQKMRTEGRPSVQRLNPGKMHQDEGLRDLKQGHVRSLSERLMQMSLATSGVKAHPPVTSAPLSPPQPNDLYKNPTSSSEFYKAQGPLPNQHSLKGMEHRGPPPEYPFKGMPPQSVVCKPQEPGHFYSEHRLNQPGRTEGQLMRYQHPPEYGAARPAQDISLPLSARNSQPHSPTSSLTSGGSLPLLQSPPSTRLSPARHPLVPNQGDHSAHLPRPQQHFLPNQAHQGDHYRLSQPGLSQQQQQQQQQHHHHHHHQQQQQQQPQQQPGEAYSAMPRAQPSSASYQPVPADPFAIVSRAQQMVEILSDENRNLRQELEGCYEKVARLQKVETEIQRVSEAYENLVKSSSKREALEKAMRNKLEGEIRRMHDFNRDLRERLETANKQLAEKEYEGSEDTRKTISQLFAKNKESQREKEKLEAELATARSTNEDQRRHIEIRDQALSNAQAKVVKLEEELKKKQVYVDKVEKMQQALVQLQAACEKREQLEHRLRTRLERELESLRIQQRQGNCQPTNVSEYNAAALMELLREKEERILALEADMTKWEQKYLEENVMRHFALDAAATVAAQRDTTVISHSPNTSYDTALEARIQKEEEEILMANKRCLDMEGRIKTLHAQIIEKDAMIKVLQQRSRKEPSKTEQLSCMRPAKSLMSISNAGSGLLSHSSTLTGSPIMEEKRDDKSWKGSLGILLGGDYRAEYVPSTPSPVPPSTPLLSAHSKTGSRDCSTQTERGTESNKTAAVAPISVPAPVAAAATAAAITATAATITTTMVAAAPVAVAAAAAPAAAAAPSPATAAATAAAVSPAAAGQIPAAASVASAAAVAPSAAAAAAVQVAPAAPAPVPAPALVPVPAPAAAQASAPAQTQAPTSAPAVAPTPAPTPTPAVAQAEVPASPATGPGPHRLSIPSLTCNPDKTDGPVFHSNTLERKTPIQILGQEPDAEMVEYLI
# UniProt Q15349, whole entry: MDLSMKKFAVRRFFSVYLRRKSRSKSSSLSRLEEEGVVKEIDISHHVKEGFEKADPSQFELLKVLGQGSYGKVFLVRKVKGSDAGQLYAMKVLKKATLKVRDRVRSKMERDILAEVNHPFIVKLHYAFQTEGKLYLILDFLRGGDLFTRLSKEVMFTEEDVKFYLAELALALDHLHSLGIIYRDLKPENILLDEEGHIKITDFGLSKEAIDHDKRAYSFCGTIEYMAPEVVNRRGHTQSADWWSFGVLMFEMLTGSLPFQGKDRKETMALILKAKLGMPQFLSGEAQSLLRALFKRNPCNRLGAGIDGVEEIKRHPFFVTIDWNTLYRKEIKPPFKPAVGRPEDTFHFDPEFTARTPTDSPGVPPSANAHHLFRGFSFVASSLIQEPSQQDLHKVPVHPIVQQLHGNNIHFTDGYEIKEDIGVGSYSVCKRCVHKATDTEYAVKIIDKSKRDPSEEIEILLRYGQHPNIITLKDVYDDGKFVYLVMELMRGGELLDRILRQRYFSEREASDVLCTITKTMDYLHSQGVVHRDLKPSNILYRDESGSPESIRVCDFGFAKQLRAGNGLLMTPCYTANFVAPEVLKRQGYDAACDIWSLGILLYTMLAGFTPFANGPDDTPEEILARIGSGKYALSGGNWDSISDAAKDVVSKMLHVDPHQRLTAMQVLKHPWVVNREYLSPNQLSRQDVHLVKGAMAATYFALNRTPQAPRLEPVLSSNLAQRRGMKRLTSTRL
# UniProt Q15424: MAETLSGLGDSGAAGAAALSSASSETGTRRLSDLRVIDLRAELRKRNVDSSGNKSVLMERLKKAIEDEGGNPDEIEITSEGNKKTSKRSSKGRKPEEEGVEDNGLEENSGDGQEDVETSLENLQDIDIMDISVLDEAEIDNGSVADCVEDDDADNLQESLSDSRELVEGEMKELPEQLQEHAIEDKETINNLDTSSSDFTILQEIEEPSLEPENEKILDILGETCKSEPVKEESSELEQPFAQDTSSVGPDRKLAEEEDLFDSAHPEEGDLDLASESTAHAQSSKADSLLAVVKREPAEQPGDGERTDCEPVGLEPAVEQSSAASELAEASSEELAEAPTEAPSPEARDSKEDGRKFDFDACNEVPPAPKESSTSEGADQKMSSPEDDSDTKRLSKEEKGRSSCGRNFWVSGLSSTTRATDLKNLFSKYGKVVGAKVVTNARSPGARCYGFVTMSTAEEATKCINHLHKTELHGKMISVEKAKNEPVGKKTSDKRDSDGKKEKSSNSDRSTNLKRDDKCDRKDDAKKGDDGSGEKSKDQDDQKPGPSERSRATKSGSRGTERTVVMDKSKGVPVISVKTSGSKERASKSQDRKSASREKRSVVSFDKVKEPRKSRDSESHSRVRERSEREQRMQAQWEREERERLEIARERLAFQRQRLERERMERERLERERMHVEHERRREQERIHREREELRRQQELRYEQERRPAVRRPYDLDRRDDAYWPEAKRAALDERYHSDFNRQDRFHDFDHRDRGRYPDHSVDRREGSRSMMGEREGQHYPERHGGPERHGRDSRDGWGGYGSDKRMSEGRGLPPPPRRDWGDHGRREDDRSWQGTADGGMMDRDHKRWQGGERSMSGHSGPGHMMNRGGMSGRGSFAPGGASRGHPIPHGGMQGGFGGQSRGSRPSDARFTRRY
# UniProt Q15404: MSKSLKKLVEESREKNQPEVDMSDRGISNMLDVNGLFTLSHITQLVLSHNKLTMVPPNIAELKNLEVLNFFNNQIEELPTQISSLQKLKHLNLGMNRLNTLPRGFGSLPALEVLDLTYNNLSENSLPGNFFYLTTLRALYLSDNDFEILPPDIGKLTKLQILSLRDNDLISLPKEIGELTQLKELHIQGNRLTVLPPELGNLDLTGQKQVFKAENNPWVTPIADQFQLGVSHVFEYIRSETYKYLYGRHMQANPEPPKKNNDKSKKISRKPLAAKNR
# UniProt Q15746, whole entry: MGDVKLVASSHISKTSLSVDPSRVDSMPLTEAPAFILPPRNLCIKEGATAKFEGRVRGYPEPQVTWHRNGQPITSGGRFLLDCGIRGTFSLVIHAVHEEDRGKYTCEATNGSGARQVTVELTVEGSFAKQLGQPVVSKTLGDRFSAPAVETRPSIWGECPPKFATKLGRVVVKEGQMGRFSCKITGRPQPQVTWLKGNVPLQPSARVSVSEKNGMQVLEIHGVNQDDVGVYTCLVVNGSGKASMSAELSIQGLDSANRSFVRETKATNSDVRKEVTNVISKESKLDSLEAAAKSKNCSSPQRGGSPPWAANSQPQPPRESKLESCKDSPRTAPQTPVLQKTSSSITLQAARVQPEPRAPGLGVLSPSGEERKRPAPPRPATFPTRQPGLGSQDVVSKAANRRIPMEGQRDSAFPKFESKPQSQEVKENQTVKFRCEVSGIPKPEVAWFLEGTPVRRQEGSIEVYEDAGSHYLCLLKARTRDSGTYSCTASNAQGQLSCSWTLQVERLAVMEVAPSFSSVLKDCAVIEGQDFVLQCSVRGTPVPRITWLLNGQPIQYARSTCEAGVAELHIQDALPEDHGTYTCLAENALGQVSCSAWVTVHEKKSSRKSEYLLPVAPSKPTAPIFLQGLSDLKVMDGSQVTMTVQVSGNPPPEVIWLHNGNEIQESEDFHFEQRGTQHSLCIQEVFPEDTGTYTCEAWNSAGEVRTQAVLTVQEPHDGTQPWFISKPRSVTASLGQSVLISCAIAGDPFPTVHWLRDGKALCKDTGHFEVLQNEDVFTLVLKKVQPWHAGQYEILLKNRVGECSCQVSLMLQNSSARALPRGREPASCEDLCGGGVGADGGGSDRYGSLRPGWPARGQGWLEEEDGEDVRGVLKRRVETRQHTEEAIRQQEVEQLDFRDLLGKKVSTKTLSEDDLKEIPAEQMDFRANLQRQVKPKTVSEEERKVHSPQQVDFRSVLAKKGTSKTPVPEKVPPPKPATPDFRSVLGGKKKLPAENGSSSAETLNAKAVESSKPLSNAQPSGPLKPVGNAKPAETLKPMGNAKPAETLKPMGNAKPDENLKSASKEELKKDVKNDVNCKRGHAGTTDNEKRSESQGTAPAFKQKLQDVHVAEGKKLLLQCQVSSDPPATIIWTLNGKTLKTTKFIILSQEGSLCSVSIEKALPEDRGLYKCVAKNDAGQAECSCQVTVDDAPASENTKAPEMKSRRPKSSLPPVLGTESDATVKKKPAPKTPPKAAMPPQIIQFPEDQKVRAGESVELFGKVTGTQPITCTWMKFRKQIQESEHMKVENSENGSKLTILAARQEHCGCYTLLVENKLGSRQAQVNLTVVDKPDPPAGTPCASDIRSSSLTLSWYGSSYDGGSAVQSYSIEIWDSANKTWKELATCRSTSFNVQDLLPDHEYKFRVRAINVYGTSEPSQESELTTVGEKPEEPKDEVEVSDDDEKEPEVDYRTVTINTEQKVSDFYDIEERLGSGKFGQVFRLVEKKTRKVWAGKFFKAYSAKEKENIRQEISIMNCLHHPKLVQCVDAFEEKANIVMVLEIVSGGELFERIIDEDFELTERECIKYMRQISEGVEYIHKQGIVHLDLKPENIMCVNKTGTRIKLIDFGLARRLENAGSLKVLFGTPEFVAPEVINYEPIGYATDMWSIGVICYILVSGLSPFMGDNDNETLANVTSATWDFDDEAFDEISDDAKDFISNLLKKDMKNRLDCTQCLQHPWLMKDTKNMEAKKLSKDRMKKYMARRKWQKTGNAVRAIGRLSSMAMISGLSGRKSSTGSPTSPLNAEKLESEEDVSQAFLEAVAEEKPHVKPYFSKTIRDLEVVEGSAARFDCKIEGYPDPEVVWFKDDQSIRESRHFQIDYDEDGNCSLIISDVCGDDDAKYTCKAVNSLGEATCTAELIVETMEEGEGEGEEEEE
# Compound: CCc1cnccc1C(=O)Nc1cc2c(cc1F)NC(=O)CC2
# Experiment: melting temperature shift (DMSO Tm minus MBE1-treated Tm) in cellular thermal proteome profiling; higher = less thermal stabilization by MBE1 (negative = stabilized by MBE1)
# Conditions: A375
Target,melting temperature shift (MBE1 concentration: 100 nM) [°C],melting temperature shift (MBE1 concentration: 1 uM) [°C]
UniProt Q16526,-0.946,-0.577
SF3B4 (UniProt Q15427),0.00611,0.446
UniProt Q16842,0.543,
UniProt Q15853,,0.0768
CHD9 (UniProt Q3L8U1),0.814,
TSC22D1 (UniProt Q15714),,-3.71
UniProt Q49AM3,1.11,-0.788
UniProt Q15723,,-0.666
TOMM34 (UniProt Q15785),-0.499,-0.615
SYPL1 (UniProt Q16563),3.88,2.58
UPP1 (UniProt Q16831),-0.462,-1.36
UniProt Q15649,0.316,
ERCC6L (UniProt Q2NKX8),-0.996,-0.167
TRIP6 (UniProt Q15654),-0.94,1.52
UniProt Q3SY17,-2.31,
UniProt Q16513,-0.682,-0.574
CCDC6 (UniProt Q16204),-1.86,-0.181
GUK1 (UniProt Q16774),-0.047,0.165
TWISTNB (UniProt Q3B726),0.141,0.216
FSCN1 (UniProt Q16658),-0.597,-0.402
PDS5A (UniProt Q29RF7),-0.16,-0.102
CCDC93 (UniProt Q567U6),0.684,0.482
PDCD4 (UniProt Q53EL6),-0.447,-0.79
UniProt Q16739,-0.275,

Target,melting temperature shift (MBE1 concentration: 100 nM) [°C],melting temperature shift (MBE1 concentration: 1 uM) [°C]
PAN2 (UniProt Q504Q3),-0.71,-0.463
EDRF1 (UniProt Q3B7T1),-0.414,-0.442
CLEC16A (UniProt Q2KHT3),4.36,
PTGES3 (UniProt Q15185),0.894,-0.342
IAH1 (UniProt Q2TAA2),-0.912,1.95
MAP3K11 (UniProt Q16584),,-1.63
MSMO1 (UniProt Q15800),-1.75,-4.19
BOLA3 (UniProt Q53S33),,0.0855
UniProt Q56A73,,0.116
PON2 (UniProt Q15165),-0.5,0.305
UniProt Q15113,-0.751,-0.141
TKFC (UniProt Q3LXA3),-1.19,0.731
UniProt Q15464,0.208,
UniProt Q17RS7,-4.23,-2.91
IFI16 (UniProt Q16666),-0.25,-0.224
MEA1 (UniProt Q16626),-2.55,-1.78
UniProt Q15700,0.647,1.03
DECR1 (UniProt Q16698),-0.241,-0.634
ARID4B (UniProt Q4LE39),-0.275,-0.102
JMJD1C (UniProt Q15652),0.476,0.25
TCEB2 (UniProt Q15370),0.188,-0.114
UniProt Q16623,-5.24,-4.97
ACOX1 (UniProt Q15067),-1.56,2.4
UniProt Q53HL2,1.39,3.95

Target,melting temperature shift (MBE1 concentration: 100 nM) [°C],melting temperature shift (MBE1 concentration: 1 uM) [°C]
DLGAP5 (UniProt Q15398),-1.25,-1.2
INF2 (UniProt Q27J81),0.259,0.72
UniProt Q15544,1.97,-1.18
UniProt Q2LD37,0.0469,-5.25
ANO6 (UniProt Q4KMQ2),-0.147,-0.116
CYTH1 (UniProt Q15438),-0.503,-0.409
UniProt Q4VCS5,1.17,-1.07
TBC1D10B (UniProt Q4KMP7),-0.215,-0.376
MRPL23 (UniProt Q16540),0.366,0.458
UniProt Q15542,-0.0256,-0.378
TERF2 (UniProt Q15554),-0.0672,-0.208
PDCD2 (UniProt Q16342),-0.557,-0.724
P3H1 (UniProt Q32P28),-0.55,-0.872
NSDHL (UniProt Q15738),-0.376,0.759
ACAP2 (UniProt Q15057),0.134,-0.421
PDK1 (UniProt Q15118),-0.0977,0.177
RALBP1 (UniProt Q15311),0.884,-0.103
SOWAHC (UniProt Q53LP3),-0.0916,-0.885
TMED2 (UniProt Q15363),-0.287,1.13
MAPRE2 (UniProt Q15555),-0.699,0.25
DPY19L1 (UniProt Q2PZI1),-0.369,-0.0335
TAF7 (UniProt Q15545),-1.57,-0.879
MAN2A1 (UniProt Q16706),-1.15,0.557
SF3B3 (UniProt Q15393),-0.514,0.263

Target,melting temperature shift (MBE1 concentration: 100 nM) [°C],melting temperature shift (MBE1 concentration: 1 uM) [°C]
UniProt Q155Q3,-1.29,-0.0833
NONO (UniProt Q15233),-0.269,-0.224
MTFR1 (UniProt Q15390),0.771,0.513
DPYSL2 (UniProt Q16555),-1.82,-0.434
RPS6KA2 (UniProt Q15349),0.66,-0.55
CYP51A1 (UniProt Q16850),-1.15,-0.687
TIMM50 (UniProt Q3ZCQ8),-0.733,0.263
NAB2 (UniProt Q15742),-0.0256,-0.737
UAP1L1 (UniProt Q3KQV9),-0.557,0.228
UniProt Q15572,-2.41,-0.468
CCDC88A (UniProt Q3V6T2),-0.21,0.0423
RABL6 (UniProt Q3YEC7),-0.208,0.799
NDUFA5 (UniProt Q16718),0.55,0.238
MAP7D1 (UniProt Q3KQU3),-0.49,0.488
NDUFA9 (UniProt Q16795),0.812,0.409
LSM12 (UniProt Q3MHD2),-0.919,-0.832
TBCC (UniProt Q15814),-0.57,0.181
NOMO1 (UniProt Q15155),-0.959,0.498
SAFB (UniProt Q15424),-2.12,-2.93
EIF4H (UniProt Q15056),0.455,0.174
UniProt Q2TAZ0,-1.22,0.436
EML3 (UniProt Q32P44),-0.0611,-0.434
UniProt Q15678,-0.306,-0.419
UniProt Q2KHR2,-0.39,-2.58

# Single entries from the entries so far.
# In melting temperature shift (MBE1 concentration: 100 nM) [°C], RABL6 (UniProt Q3YEC7) reads -0.208
# In melting temperature shift (MBE1 concentration: 1 uM) [°C], DPYSL2 (UniProt Q16555) reads -0.434

# 2 successive records already listed, for reference:
Target,melting temperature shift (MBE1 concentration: 100 nM) [°C],melting temperature shift (MBE1 concentration: 1 uM) [°C]
TIMM50 (UniProt Q3ZCQ8),-0.733,0.263
NAB2 (UniProt Q15742),-0.0256,-0.737

# (listing goes on)

Target,melting temperature shift (MBE1 concentration: 100 nM) [°C],melting temperature shift (MBE1 concentration: 1 uM) [°C]
RSU1 (UniProt Q15404),-1.22,-0.128
RAB35 (UniProt Q15286),-0.892,-1.97
GXYLT1 (UniProt Q4G148),-0.932,-0.785
SMU1 (UniProt Q2TAY7),0.879,0.666
UniProt Q15582,-0.704,0.159
CTU2 (UniProt Q2VPK5),-0.416,0.482
GRAMD1B (UniProt Q3KR37),-2.65,-2.1
DBN1 (UniProt Q16643),-0.464,0.189
UniProt Q16864,-0.902,0.356
AAK1 (UniProt Q2M2I8),-0.0733,0.14
RBBP5 (UniProt Q15291),-1.4,-2.32
TSN (UniProt Q15631),-4.18,1.36
UniProt Q4KMQ1,-1.36,-0.231
ALG11 (UniProt Q2TAA5),-0.905,0.246
MYLK (UniProt Q15746),3.82,0
UniProt Q17RY0,2.34,0.397
RBBP7 (UniProt Q16576),-1.88,-1.19
SLC25A35 (UniProt Q3KQZ1),-0.275,-0.861
PDK2 (UniProt Q15119),0.739,0.501
UniProt Q16670,-1.59,-4.02
CWF19L2 (UniProt Q2TBE0),-0.577,-0.436
PHLDA2 (UniProt Q53GA4),-1.35,-0.263
UniProt Q15532,-3.42,0.493
CDC37 (UniProt Q16543),-0.449,-0.402

# Source: the supplement of paper PMC12595434, “Development of retinoid nuclear receptor pathway antagonists through targeting aldehyde dehydrogenase 1A3” (iScience, 2025)
